{"source": "patent US9132174", "about": "(ANCHORED RSK3 INHIBITORS, dated 2015)", "binders": {"B1": {"name": "myc-tagged mAKAP RSK binding domain (RBD), mAKAP 1694-1833 (protein, UniProt Q9WVC7 1694-1833, looked up, not shown: small tags and cut ends)", "chain": "ELSLCSEDIVLHKNKIPESNASFRKRLNRSVADESDVNVSMIVNVSCTSACTDDEDDSDLLSSSTLTLTEEELCLKDEDDDSSIATDDEIYEESNLMSGLDYIKNELQTWIRPKLSLTREKKRSGVTDEIKVNKDGGGNE"}}, "key": {"[1]": {"target": "HA-RSK3 DN30 (N-terminally truncated RSK3 mutant)", "assay": "co-immunoprecipitation, COS-7 cells"}, "[2]": {"target": "HA-tagged full-length RSK2", "assay": "co-immunoprecipitation, COS-7 cells"}}, "note": "These are yes or no findings as the source states them, for the method shown. Binding seen in cells or lysates may run through a third protein. Tags and fused reporters may be left off the sequences shown."}
{"binder": "B1", "values": [{"measurement": "binding", "setting": "[1]", "result": "no binding"}, {"measurement": "binding", "setting": "[2]", "result": "no binding"}]}
